The nature of this test: modulators of CD8 T cell-vesicle binding, confirmation, cherry-picked primary hits, two concentrations (AID 2810).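 As to all read-outs here: lower values mean blocking of vesicle binding.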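 As to percent response (vesicle binding): ratio of mean FL2 vesicle stain of CD8+ cells to that row's control.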 As to conditions: 2C CD8+ T cell-vesicle binding, flow cytometry; for double positive events: CD8+/vesicle+ events. (Flow cytometry measures light scatter and fluorescence of single cells or particles in a stream.)
[1] abbreviates: at 15.4 µM, stronger effect = lower value.

The other results are listed elsewhere or left out. These are further read-outs of the screen, such as a control signal, another cell line or another target. No call is given for them.

Under “at 7.7 µM”, `O=C(OCC(=O)N1CCc2ccccc2C1)c1ccc(F)cc1Cl` displayed a double positive events of 21.8% and a percent response (vesicle binding) of 251%. This molecule also registered a double positive events under setting [1] of 25.4%.

For the setting “at 7.7 µM”, `O=C(/C=C/c1ccccc1Cl)NCCc1ccccc1` showed a double positive events of 8.2% and a percent response (vesicle binding) of 395%. For the same molecule, under setting [1], the double positive events was found to be 4.2%.

Where the note is “at 7.7 µM”, `COc1cc(/C=C/C(=O)OCC(=O)Nc2cccc(Oc3ccccc3)c2)ccc1O` yielded a double positive events of 22.2% and a percent response (vesicle binding) of 209%. Under setting [1], this molecule yielded a double positive events of 6.6%.

As for `CCCn1c(SCC(=O)NCc2cccs2)nc2c1c(=O)n(C)c(=O)n2C`, where the note is “at 7.7 µM”, the double positive events worked out at 32.3% and the percent response (vesicle binding) was determined as 241%. In addition, the double positive events under setting [1] came out at 19.6%.

For the setting “at 7.7 µM”, `O=C(COC(=O)/C=C/c1ccc(OC(F)F)cc1)NC1CCCC1` came in with a double positive events of 19.1% and a percent response (vesicle binding) of 87%. For the same molecule, the double positive events under setting [1] was determined as 16.4%.

Under “at 7.7 µM”, `CCOC(=O)c1cnc(=O)[nH]c1C` had a double positive events of 14.2% and a percent response (vesicle binding) of 284%. For the same molecule, under setting [1], the double positive events was 10.9%.

As for `COc1cccc(NC(=O)CSc2nc3ccccc3c3nc4ccccc4n23)c1`, the double positive events by setting is: (at 7.7 µM) 14.6%; under setting [1], 30.3%. The same molecule displayed a percent response (vesicle binding) (at 7.7 µM) of 239%.

Regarding `O=C(CS(=O)(=O)Cc1ccccc1)N1CCc2ccccc21`, where the note is “at 7.7 µM”, the double positive events worked out at 7.1% and the percent response (vesicle binding) came to 182%. The molecule also yielded a double positive events under setting [1] of 4.4%.

Under “at 7.7 µM”, `C[C@H](NS(=O)(=O)c1ccccc1)C(=O)OCC(=O)NC(=O)Nc1ccc2c(c1)OCCO2` displayed a double positive events of 10% and a percent response (vesicle binding) of 480%. Under setting [1], this molecule returned a double positive events of 24.8%.

For the setting “at 7.7 µM”, `Cn1c(=O)c2[nH]c(-c3ccccc3Cl)c(O)c2n(C)c1=O` gave a double positive events of 9.6% and a percent response (vesicle binding) of 107%. The same molecule had a double positive events under setting [1] of 31.4%.

For the molecule `COc1cccc(CN(C)CC(=O)NNC(=O)c2ccc(Cl)cc2)c1`, the double positive events turned out to be 10.7% (at 7.7 µM) and 24.7% under setting [1]. The percent response (vesicle binding) (at 7.7 µM) stood at 262%.

For the molecule `COc1ccc2nc(N3C(=O)/C(=C/c4ccccc4)NC3=S)sc2c1`, the double positive events was 40.3% (at 7.7 µM) and 29% under setting [1]. Also, for the setting “at 7.7 µM”, the percent response (vesicle binding) is 289%.

`Cc1ccc(N2CC(C(=O)NC3=NCCS3)CC2=O)cc1` (configuration not stated): the double positive events reads like this: (at 7.7 µM) 8.4%; under setting [1], 10.6%. The same molecule yielded a percent response (vesicle binding) (at 7.7 µM) of 241%.

`Cc1cccc(NC(=O)c2ccc(OCc3c(C)noc3C)cc2)n1`: the double positive events reads like this: (at 7.7 µM) 10.5%; under setting [1], 19.7%. For the same molecule, under “at 7.7 µM”, the percent response (vesicle binding) is 387%.

Consider `O=C(NCC(c1ccco1)N1CCc2ccccc2C1)c1ccc(F)cc1` (configuration not stated), for which, where the note is “at 7.7 µM”, the double positive events is 13% and the percent response (vesicle binding) stood at 170%. Moreover, the double positive events under setting [1] turned out to be 14%.

For the setting “at 7.7 µM”, `CC1CCC(C(=O)c2c(O)c3ccccc3oc2=O)CC1` (configuration not stated) came in with a double positive events of 8% and a percent response (vesicle binding) of 119%. Also, the double positive events under setting [1] was 21.2%.

Take `COc1ccc(NS(=O)(=O)c2cc3c4c(c2)CCN4C(=O)CC3)cc1OC`: for the setting “at 7.7 µM”, the double positive events came out at 6.1% and the percent response (vesicle binding) was 103%. This molecule had a double positive events under setting [1] of 9.6%.

For the molecule `COc1cc(C2C(C#N)=C(N)Oc3c2ccc2ccccc32)ccc1OCC(=O)Nc1cccc(C)c1` (configuration not stated), where the note is “at 7.7 µM”, the double positive events was found to be 17.3% and the percent response (vesicle binding) worked out at 148%. Moreover, under setting [1], the double positive events was found to be 20.8%.

Consider `COc1ccc(CNC(=O)CCc2ccc(S(=O)(=O)N3CCCCCC3)cc2)cc1`, for which the double positive events runs as follows: (at 7.7 µM) 14.8%; under setting [1], 18.3%. Further, for the setting “at 7.7 µM”, the percent response (vesicle binding) worked out at 528%.

With `Cc1nc(-c2ccccc2)[nH]c(=O)c1Oc1ccc(Cl)cc1Cl`, where the note is “at 7.7 µM”, the double positive events turned out to be 13.4% and the percent response (vesicle binding) stood at 360%. The double positive events under setting [1] came out at 19.9%.

Consider `CC(=O)NC(CC(=O)O)c1ccc(F)cc1` (configuration not stated), for which, where the note is “at 7.7 µM”, the double positive events worked out at 10.9% and the percent response (vesicle binding) was 354%. This molecule returned a double positive events under setting [1] of 16.8%.

In the case of `COC(=O)c1sccc1S(=O)(=O)N1CCCC(N(C)CCc2ccccn2)C1` (configuration not stated), the double positive events worked out at 19.9% (at 7.7 µM) and 33.7% under setting [1]. Also, the percent response (vesicle binding) (at 7.7 µM) stood at 204%.

For `Fc1ccc(CNC(=S)NCc2ccccc2)cc1`, the double positive events reads like this: (at 7.7 µM) 9.9%; under setting [1], 33.6%. This molecule also gave a percent response (vesicle binding) (at 7.7 µM) of 402%.

For the molecule `CCOc1ccc(NC(=O)CCC(=O)NNC(=O)c2cccc([N+](=O)[O-])c2)cc1`, for the setting “at 7.7 µM”, the double positive events amounted to 19.6% and the percent response (vesicle binding) came to 132%. Under setting [1], this molecule came in with a double positive events of 31.1%.

Consider `CC(=O)c1ccc(NC(=O)c2ccc3c(Cl)c4c(nc3c2)CCCC4)cc1`, for which the double positive events runs as follows: (at 7.7 µM) 15.1%; under setting [1], 17.6%. The percent response (vesicle binding) (at 7.7 µM) stood at 198%.

With `Cc1cccc(N(C(=O)c2snc(C(N)=O)c2N)C(C(=O)NCC2CCCO2)c2ccc(N(C)C)cc2)c1C` (configuration not stated), the double positive events was found to be 6.5% (at 7.7 µM) and 11.5% under setting [1]. The percent response (vesicle binding) (at 7.7 µM) amounted to 126%.

Where the note is “at 7.7 µM”, `CC(=O)Nc1ccc2nc(C3CC3)n(Cc3ccc(Cl)cc3)c(=O)c2c1` came in with a double positive events of 21% and a percent response (vesicle binding) of 287%. Further, under setting [1], the double positive events was 6.7%.

With `COc1ccc2c(c1)OC(c1ccccc1)(C(F)(F)F)NC2=O` (configuration not stated), the double positive events by setting is: (at 7.7 µM) 17.8%; under setting [1], 35.8%. This molecule also registered a percent response (vesicle binding) (at 7.7 µM) of 84.4%.

Under “at 7.7 µM”, `CCN(CC)S(=O)(=O)c1ccc(/C(O)=C(\C#N)c2nc3ccccc3n2C)cc1` had a double positive events of 10.9% and a percent response (vesicle binding) of 347%. Further, the double positive events under setting [1] came out at 17.6%.

For the setting “at 7.7 µM”, `CCN(CC)S(=O)(=O)c1ccc2c3c(cccc13)C(=O)N2` had a double positive events of 9.9% and a percent response (vesicle binding) of 625%. Also, the double positive events under setting [1] came to 12.3%.

Regarding `Cc1ccc(S(=O)(=O)N2CCN(S(=O)(=O)N(C)C)CC2)c(C)c1`, for the setting “at 7.7 µM”, the double positive events turned out to be 10.6% and the percent response (vesicle binding) was 269%. Under setting [1], this molecule displayed a double positive events of 18.2%.

For `OC1(CC#CCN2CCCCC2)c2ccccc2-c2ccccc21`, under “at 7.7 µM”, the double positive events was determined as 41.9% and the percent response (vesicle binding) was determined as 333%. Also, the double positive events under setting [1] was found to be 24%.

`COc1ccc(CCNC(=O)c2cccc(NC3=NC4CS(=O)(=O)CC4S3)c2)c(OC)c1` (configuration not stated): the double positive events was 24.4% (at 7.7 µM) and 24.5% under setting [1]. The molecule also yielded a percent response (vesicle binding) (at 7.7 µM) of 321%.

In the case of `O=[N+]([O-])c1ccc2nc(-c3ccccn3)[nH]c2c1`, the double positive events was determined as 35.9% (at 7.7 µM) and 14.8% under setting [1]. Also, the percent response (vesicle binding) (at 7.7 µM) is 389%.

For the molecule `COc1ccc(N2CCN(c3c(S(=O)(=O)c4ccccc4)cnc4ccc(OC)cc34)CC2)cc1`, the double positive events runs as follows: (at 7.7 µM) 21.9%; under setting [1], 13%. The molecule also displayed a percent response (vesicle binding) (at 7.7 µM) of 250%.

With `Cc1ccsc1C(=O)N1CCCC(N(C)Cc2ccccc2)C1` (configuration not stated), for the setting “at 7.7 µM”, the double positive events came out at 32.3% and the percent response (vesicle binding) was 681%. Besides, under setting [1], the double positive events stood at 16%.

Where the note is “at 7.7 µM”, `C[C@H](CO)N1C[C@H](C)[C@@H](CN(C)C(=O)Nc2ccc3c(c2)OCO3)Oc2c(NC(=O)c3ccncc3)cccc2C1=O` displayed a double positive events of 27.1% and a percent response (vesicle binding) of 198%. Moreover, the double positive events under setting [1] was found to be 19%.

Where the note is “at 7.7 µM”, `Cc1ccn2c(-c3n[nH]c(=S)n3Cc3ccccc3)c(C)nc2c1` registered a double positive events of 9.7% and a percent response (vesicle binding) of 138%. Also, the double positive events under setting [1] amounted to 18.7%.

With `CCCN(C(=O)/C=C/c1nc2ccccc2s1)C1CCS(=O)(=O)C1` (configuration not stated), where the note is “at 7.7 µM”, the double positive events was 38.9% and the percent response (vesicle binding) was found to be 302%. Besides, under setting [1], the double positive events was 6%.
